In PubChem BioAssay AID504467 (National Center for Advancing Translational Sciences (NCATS), 2011):
Among all 330,000 compounds or so, about 7,700 (2.3%) were called active. Inconclusive results, whose numbers are uncertain, are shown with a selection of clear calls. Calls come from the whole dose curve; as a rule, active = well fitted inhibition curve with a large enough effect; inconclusive = small, poorly fitted or top-dose-only effect, or effect the other way; inactive = flat fitted curve, though single readings scatter. A potency beside an inconclusive call is a rough fit, not a confirmed value.

Test: qHTS screen for small molecules that inhibit ELG1-dependent DNA repair in human embryonic kidney (HEK293T) cells expressing luciferase-tagged ELG1; note: nearly all actives have a fitted effect of over 55% in size
Details: HEK293T ELG1-luciferase reporter, luminescence, 16 h, DNA damage induced by 5-fluorouridine; activity change, negative = inhibition: at 46.1 µM (top of the series)
How it was run: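 HEK293T cells expressing luciferase-tagged ELG1 (2,000/well) received 5-Fluorouridine plus compound or DMSO for 16 hr at 37 °C. Luciferase was read by ONE-Glo luminescence after 30 min at room temperature.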
% is set by controls: 0 for no effect and ±100 for the full control effect; potency is the fitted concentration of half-maximal effect.

SMILES | Potency | activity change, negative = inhibition
CCN(CCNC(=O)Nc1ccc(Cl)cc1)c1ccccc1 | active: 5.17 µM | –
COc1ccc(CNC(=O)/C=C/c2ccc(S(=O)(=O)NCc3ccco3)cc2)cc1OC | inconclusive: 25.9 µM [inhibitor, partial curve] | –
CCOC(=O)c1c(N)sc(C(C)=O)c1C | inconclusive: 16.4 µM [activator, single point] | –
COc1ccc(N=C2NN=C(c3c(C)[nH]c4ccccc34)CS2)cc1 | inconclusive: 32.6 µM [inhibitor, single point] | –
Cc1nc(NC(=O)c2ccccc2)sc1-c1csc(Nc2cccc(Cl)c2)n1 | inconclusive: 9.2 µM [inhibitor, partial curve] | –
CCN1CCN(S(=O)(=O)c2ccc(Cl)c(C(=O)Nc3nnc(CC(C)C)s3)c2)CC1 | – | inactive: -7.96%
CCN(C1CCCCC1)S(=O)(=O)c1ccc(S(=O)(=O)NCc2ccncc2)cc1 | inconclusive: 5.17 µM [inhibitor, partial curve] | –
COc1ccc(Cl)cc1N=Cc1c(O)c2ccccc2oc1=O | – | inactive: 11%
COc1ccc2c(c1OC)C(=O)N(c1cccc(C(F)(F)F)c1)C2 | inconclusive: 2.59 µM [activator, full curve] | –
CC(=O)Oc1ccc(OC(C)=O)c2c1CC(C)=C(C)C2 | – | inactive: -21.2%
COC(=O)c1c(F)c(F)c(N2CCOCC2)c(F)c1F | – | inactive: 12.6%
CCOc1cc(/C=C2/C(=N)N3C=CSC3=NC2=O)ccc1OCCCOc1ccccc1C | inconclusive: 35.5 µM [activator, single point] | –
O=C(O)c1cc(N/N=C/C=C/c2ccccc2[N+](=O)[O-])ccc1Cl | inconclusive: 8.2 µM [activator, partial curve] | –
CC1CC(C)(C)NC(=S)S1 (stereo not given) | – | inactive: 4.75%
CCn1nc(CC(C)C)cc1C(=O)N1CCCC(Nc2ccc(F)cc2)C1 (stereo not given) | inconclusive: 16.4 µM [inhibitor, single point] | –
Fc1ccccc1Nc1nc2ccccc2n2nnnc12 | inconclusive: 20.6 µM [activator, partial curve] | –
COC(=O)COc1ccc(S(=O)(=O)N2CCCCCC2)cc1 | – | inactive: 16%
CSc1ccc(CCNC(=O)CN2C(=O)c3cccnc3Oc3ccc(C)cc32)cc1 | – | inactive: -10.2%
COc1ccc(OC)c(Nc2nc(NCc3ccco3)c3ccccc3n2)c1 | inconclusive: 16.4 µM [inhibitor, single point] | –
CCc1ccc(NC(=O)Nc2cccs2)cc1 | inconclusive: 1.3 µM [activator, partial curve] | –
CC1CCN(Cc2nnnn2CCCC(=O)N(C)C2CCOC2)CC1 (stereo not given) | – | inactive: 1.49%
CCN(CC(=O)NCc1cccs1)C(=O)c1cc(=O)[nH]c2ccccc12 | inconclusive: 5.17 µM [activator, single point] | –
O=C(NCCc1ccccc1)c1n[nH]c(=O)c2ccccc12 | inconclusive: 20.6 µM [activator, single point] | –
C=CCn1c(COc2ccc(Cl)cc2)nnc1SCc1ccc(C#N)cc1 | inconclusive: 29.1 µM [inhibitor, single point] | –

Quoted at random: three entries already listed.
SMILES | Potency | activity change, negative = inhibition
CCn1nc(CC(C)C)cc1C(=O)N1CCCC(Nc2ccc(F)cc2)C1 (stereo not given) | inconclusive: 16.4 µM [inhibitor, single point] | –
CC(=O)Oc1ccc(OC(C)=O)c2c1CC(C)=C(C)C2 | – | inactive: -21.2%
COC(=O)c1c(F)c(F)c(N2CCOCC2)c(F)c1F | – | inactive: 12.6%

Following part.

SMILES | Potency | activity change, negative = inhibition
CC(OC(=O)c1nsc(Cl)c1Cl)C(=O)NCCc1ccccc1 (stereo not given) | – | inactive: 11.3%
O=c1[nH]c(=O)n(Cc2ccco2)c2c1C(C(F)(F)F)(C(F)(F)F)N=C(c1ccc(F)cc1)N2 | – | inactive: -5.68%
COc1ccc(-n2ncc3c(SCC(=O)N4CCN(c5ccccc5OC)CC4)ncnc32)cc1 | active: 16.4 µM | –
O=C(COC(=O)c1cncc(Br)c1)NC1CCCCC1 | – | inactive: -6.36%
COc1c2ccoc2c(OC(C)=O)c2oc(C)cc(=O)c12 | – | inactive: -1.03%
CCN(CC)CCn1c(NCc2cccc(OC)c2OC)nc2ccccc21 | – | inactive: 0.103%
CS(=O)(=O)NCC(c1cccnc1)N1CCN(c2ccccc2F)CC1 (stereo not given) | inconclusive: 18.3 µM [activator, partial curve, poor fit] | –
CCOc1ccccc1NC(=O)NCc1ccc2c(c1)OCO2 | – | inactive: 3.21%
COc1ccc(-c2cc(-c3ccccc3)c(C#N)c(S(C)(=O)=O)n2)cc1 | inconclusive: 6.51 µM [inhibitor, single point] | –
O=C(NC(=S)Nc1nc(-c2cccc([N+](=O)[O-])c2)cs1)c1cc(Cl)ccc1Cl | inconclusive: 23.1 µM [inhibitor, single point] | –
O=C(CSc1nnc(-c2ccc3c(c2)OCO3)o1)Nc1ncc(Cl)cc1Cl | inconclusive: 14.6 µM [activator, partial curve] | –
Cn1c(=O)n(CC(=O)N2CCN(c3nnc(-c4ccccc4)c4ccccc34)CC2)c2ccccc21 | inconclusive: 4.11 µM [inhibitor, partial curve, poor fit] | –
O=C1CC(N2CCC(c3nc4ccccc4[nH]3)CC2)C(=O)N1c1ccccc1F (stereo not given) | – | inactive: 8.75%
CCOc1ccc(CCNC(=O)COC(=O)c2ccccc2O)cc1OCC | – | inactive: -5.11%
COc1ccc(Cl)cc1-c1nc(SCC(=O)NCC2CCCO2)n[nH]1 (stereo not given) | – | inactive: -1.01%
Cc1cc(NC(=O)COc2ccccc2C)no1 | inconclusive: 14.6 µM [activator, partial curve] | –
Cc1ccc(-c2nnc3ccc(SCC(=O)NCc4ccco4)nn23)cc1 | inconclusive: 4.61 µM [inhibitor, partial curve, poor fit] | –
CCCn1nc2cc(C(=O)NCc3ccc(OC(F)(F)F)cc3)ccc2c1OCC | inconclusive: 16.4 µM [inhibitor, single point] | –
C/C(=N\NC(=O)C1CC1)c1ccc(NC(=O)c2ccc(Br)o2)cc1 | inconclusive: 14.6 µM [activator, partial curve] | –
COc1ccc2c(CSc3nnc(-c4cccnc4)n3-c3ccccc3F)cc(=O)oc2c1 | inconclusive: 32.6 µM [inhibitor, single point] | –
COc1ccc(-n2nc3cc(C)c(NC(=O)C(C)C)cc3n2)cc1 | inconclusive: 0.517 µM [activator, full curve] | –
CNS(=O)(=O)c1cccc(C(=O)OCc2cc(Cl)cc3c2OCOC3)c1 | inconclusive: 25.9 µM [inhibitor, partial curve, poor fit] | –
S=c1[nH]nc(-c2ccc(Cl)cc2Cl)n1-c1ccc(Cl)cc1 | – | inactive: -0.383%
C=CCN1C(=O)/C(=c2\sc3nc(=O)c(Cc4ccccc4Cl)nn3c2=O)c2ccccc21 | inconclusive: 23.1 µM [inhibitor, partial curve, poor fit] | –

SMILES | Potency | activity change, negative = inhibition
c1ccc(COc2ccc(OCCn3cncn3)cc2)cc1 | inconclusive: 29.1 µM [activator, single point] | –
O=C(COc1ccc([N+](=O)[O-])cc1)Nc1ccc(CN2CCOCC2)cc1 | inconclusive: 13 µM [inhibitor, partial curve] | –
CC1CCN(C(=O)c2ccc3c(c2)OCCO3)CC1 | inconclusive: 16.4 µM [activator, single point] | –
COc1ccccc1C(=O)NC(=S)/C=C1/N(C)c2ccccc2C1(C)C | inconclusive: 29.1 µM [inhibitor, single point] | –
CCOC(=O)Cc1csc(NC(=O)/C=C\c2ccccc2)n1 | inconclusive: 18.3 µM [inhibitor, partial curve, poor fit] | –
O=C(CCCOc1ccc(Cl)cc1Cl)N1CCCc2ccccc21 | inconclusive: 16.4 µM [activator, partial curve] | –
C=CC[C@H](CC(=O)N(CCO)Cc1ccccc1)C(=O)NCCOC(=O)[C@H](CC=C)CC(=O)OC(C)(C)C | inconclusive: 29.1 µM [inhibitor, single point] | –
Cn1c(SCC(N)=O)nnc1-c1ccc(C(C)(C)C)cc1 | inconclusive: 16.4 µM [activator, single point] | –
O=C(O)c1ccc(Nc2nc(-c3cc4ccccc4oc3=O)cs2)cc1O | inconclusive: 20.6 µM [activator, single point] | –
Cc1cc(C(F)(F)F)n2ncc(-c3cccc(Br)c3)c2n1 | – | inconclusive: 61.7% [activator]
CC(C)N1CCN(Cc2cnc(-c3ccccc3)s2)CC1CCO (stereo not given) | – | inactive: -24.2%
O=C(NC1CCC(O)CC1)c1cc(Cl)c2c(c1)OCCO2 (stereo not given) | inconclusive: 20.6 µM [activator, single point] | –
O=C(C1CC(c2ccc(F)cc2)=NO1)N1CCCCC1 (stereo not given) | inconclusive: 16.4 µM [activator, partial curve] | –
COc1ccc(-c2ncncc2-c2ccc(OC)c(OC)c2)c(O)c1 | inconclusive: 23.1 µM [inhibitor, partial curve, poor fit] | –
COc1cc(NC(=O)c2ccccc2)c(OC)cc1NC(=O)Cc1ccc(C)cc1 | – | inactive: -8.46%
CCC(=O)N(CCN1CCOCC1)Cc1cc2cc3c(cc2nc1Cl)OCO3 | inconclusive: 29.1 µM [inhibitor, single point] | –
CNC(=O)C1CCN(S(=O)(=O)c2c(C)noc2/C=C/c2cccc(C)c2)CC1 | inconclusive: 23.1 µM [inhibitor, single point] | –
C=CCNC(=O)C1CC(=O)N(c2ccc(OCC(=O)Nc3ccc(Cl)cc3)cc2)C1 (stereo not given) | – | inactive: 9.5%
CCOc1ccc2nc(N=NC3=C(O)CC(C)(C)CC3=O)sc2c1 | inconclusive: 5.8 µM [inhibitor, single point] | –
O=C(N[C@@H](CCC/[N+]([O-])=C/c1ccccc1)C(=O)O)OCc1ccccc1 | – | inactive: 21.8%
C=CCn1c(C)c(C(C)=O)c(N2CCN(C(c3ccccc3)c3ccccc3)CC2)nc1=S | inconclusive: 29.1 µM [inhibitor, single point] | –
CC1(C)CC(NCCN2CCN(C3=CC(=C(C#N)C#N)CC(C)(C)C3)CC2)=CC(=C(C#N)C#N)C1 | inconclusive: 20.6 µM [inhibitor, single point] | –
